Measurements published in PubChem BioAssay AID504444 (National Center for Advancing Translational Sciences (NCATS), 2011).
In all, about 360,000 compounds went through this assay and about 7,500 (2.1%) were called active. The inconclusive results got no clear call from the source; some entries with a clear call stand among them for comparison. Calls follow the shape of the dose curve; as a rule, active = well fitted inhibition curve with a large enough effect; inconclusive = small, poorly fitted or top-dose-only effect, or effect the other way; inactive = flat fitted curve, though single readings scatter. Potencies of inconclusive entries are doubtful fits and often do not repeat.

test: Nrf2 qHTS screen for inhibitors; settings: A549 ARE-Fluc reporter, luciferase luminescence, 18-24 h; series mostly up to 46 µM; also: nearly all actives have a fitted effect of over 60% in size
Procedure, shortened: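 A549 ARE_Fluc cells, 5000/well, 5% FBS OPTI-MEM; compounds in dose-response, 18-24 h at 37 °C/5% CO2; CellTiter-Fluor viability read (Ex 405/Em 525), then BugLite luciferase luminescence = Nrf2 activity.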
Potency is read from the fitted curve at half-maximal effect.

Compound	Potency
Cc1ccc(-c2nnc(NCc3ccccc3)c3ccccc23)cc1	inconclusive: 29.1 µM [falling, single point]
CCOC(=O)c1sc2ccccc2c1S(=O)(=O)N1CCN(c2cccc(OC)c2)CC1	inconclusive: 20.6 µM [falling, single point]
CCOc1ccc(S(=O)(=O)c2cn(Cc3ccccc3)c3ccc(OCC)cc3c2=O)cc1	inactive
CC(C)(C)OC(=O)N1CCC(c2c(C(=O)NCc3ccco3)cnn2-c2ccccc2)CC1	inconclusive: 25.9 µM [falling, partial curve, poor fit]
CCCCCCCCC[n+]1cccc2c3ccccc3ccc21	active: 9.2 µM
COc1cc(CCC(=O)Nc2ccc(C)c(S(=O)(=O)N3CCCCCC3)c2)cc(OC)c1OC	inconclusive: 20.6 µM [falling, partial curve, poor fit]
Nc1cc(C(=O)O)ccc1Nc1ccccc1	inconclusive: 5.8 µM [falling, partial curve, poor fit]
CCC(=O)N1CCN(c2ccnc3cc(Cl)ccc23)CC1	inconclusive: 16.4 µM [falling, partial curve, poor fit]
O=C1NC(=O)/C(=C/c2ccc(-c3cccc([N+](=O)[O-])c3)o2)S1	inconclusive: 1.3 µM [falling, partial curve, poor fit]
O=C(Nc1ncc([N+](=O)[O-])s1)C1CC(=O)N(c2ccc(F)cc2)C1 (stereo not drawn)	inactive
Cc1csc2ncnc(NNC(=O)c3ccc(Cl)cc3)c12	active: 20.6 µM
CN(C)S(=O)(=O)c1ccc(NC(=O)N2CCN(c3ccccc3Cl)CC2)cc1	inconclusive: 32.6 µM [falling, single point]
Cc1cc(C)c(Cn2c3ccccc3c3cnn(CC(=O)NCc4ccccn4)c(=O)c32)c(C)c1	inconclusive: 23.1 µM [falling, single point]
Cc1ccc(NC(=O)CCNC(=O)c2ccco2)cc1Cl	inconclusive: 5.17 µM [falling, partial curve, poor fit]
CCCCCC(=O)NC(=S)Nc1ccc(Br)cc1C	inconclusive: 4.61 µM [falling, single point]
Cc1cc(Cc2ccc([N+](=O)[O-])cc2)c(C)cn1	inconclusive: 23.1 µM [falling, single point]
O=C(CCS(=O)(=O)c1ccc(Br)cc1)Nc1ccc(Cl)c(C(F)(F)F)c1	inconclusive: 32.6 µM [falling, single point]
CN(C)c1ccc(C(=O)OCC(=O)N2CCCCCC2)cc1	inconclusive: 18.4 µM [activator, single point]
CCOC(=O)N1CCC(NC(=O)CCN2C(=O)C3C4C=CC(C4)C3C2=O)CC1 (stereo not drawn)	inconclusive: 20.6 µM [activator, partial curve]
COc1cccc(NC(=O)Cn2c(=O)n(CC(=O)NCc3ccc(C)cc3)c(=O)c3sccc32)c1	inconclusive: 16.4 µM [falling, single point]
COc1ccc(N/C(C)=C/C(=O)c2ccccc2)cc1	inconclusive: 20.6 µM [activator, partial curve, poor fit]

Compound	Potency
c1csc(Cn2c(-c3cccs3)nc3ccccc32)c1	inconclusive: 25.9 µM [falling, single point]
c1ccc2c(c1)ccc1ccccc12	inactive
Cc1cc(-c2nnc(-c3cccc(Cl)c3)o2)no1	inconclusive: 13 µM [activator, partial curve]
Cc1ccc(C(c2ccccc2)c2c(C)[nH]c3ccccc23)s1 (stereo not drawn)	inconclusive: 29.1 µM [activator, single point]
Oc1c(C(c2ccc(F)cc2)N2CCc3ccccc3C2)sc2ncnn12 (stereo not drawn)	inconclusive: 1.46 µM [falling, full curve, poor fit]
Cc1cccc(CNc2ccc(C(CC(N)=O)NC(=O)Cc3cccc4ccccc34)cc2[N+](=O)[O-])c1 (stereo not drawn)	inconclusive: 20.6 µM [falling, partial curve, poor fit]
COc1ccc(N2CC(C)Cn3c2nc2c3c(=O)n(CCc3ccccc3)c(=O)n2C)cc1 (stereo not drawn)	inactive
N#CC(CCc1ccc([N+](=O)[O-])cc1)(CCc1ccc([N+](=O)[O-])cc1)C(N)=O	inconclusive: 20.6 µM [falling, single point]
C#CCOCCOCCOCCNc1nc(N2CCN(C(=O)C([C@@H](C)CC)n3cc(C(N)Cc4ccc(O)cc4)nn3)CC2)nc(N2CCN(C(=O)[C@H](CCC(=O)O)n3cc(C(N)Cc4ccc(O)cc4)nn3)CC2)n1 (stereo partly drawn)	inactive
COc1ccc(Cc2[nH]n3c(=O)cc(C(C)C)nc3c2-c2ccccc2)cc1	active: 11.6 µM
CC1CCN(c2oc(-c3ccc(COc4ccccc4)o3)nc2C#N)CC1	inactive
CCc1ccc(-n2c(N3CCN(c4cccc(Cl)c4)CC3)nc3ccccc3c2=O)cc1	inconclusive: 14.6 µM [falling, single point]
O=[N+]([O-])c1cccc(NC(=S)Nc2nc(-c3ccccc3Cl)cs2)c1	inconclusive: 18.4 µM [falling, single point]
Cc1c(C(=O)N2CCN(c3ccc([N+](=O)[O-])cc3)CC2)sc2ncn(CC(=O)N3CCOCC3)c(=O)c12	inconclusive: 16.4 µM [falling, single point]
O=C(CSc1ccc2nnc(-c3ccccc3)n2n1)NCc1ccco1	inactive
CCc1noc(C)c1C(=O)N1CCN(c2cccc(C)c2C)CC1	inconclusive: 25.9 µM [falling, single point]
CCOC(=O)c1cc(C#N)c(N2CCN(C(=O)c3cccc(C(F)(F)F)c3)CC2)nc1C(F)(F)F	inconclusive: 20.6 µM [falling, single point]
Cc1ccc(S(=O)(=O)N2CCOC2CNC(=O)C(=O)NCc2ccc(Cl)cc2)cc1 (stereo not drawn)	inconclusive: 29.1 µM [falling, single point]
CN(C)S(=O)(=O)n1cc(/C=C(\NC(=O)c2ccccc2F)C(=O)N2CCCC2)c2ccccc21	inconclusive: 13 µM [falling, partial curve]
COc1ccc(C)cc1N(CC(=O)NCCSCc1ccco1)S(=O)(=O)c1ccc(C)cc1	inconclusive: 16.4 µM [falling, single point]
CC(=O)c1c(C)[nH]c(C(=O)NCCC2=CCCCC2)c1C	inconclusive: 3.26 µM [activator, partial curve, poor fit]

Compound	Potency
CCc1nc(C)cn1S(=O)(=O)c1cc(C)c(OC)c(C)c1C	inconclusive: 8.2 µM [falling, partial curve, poor fit]
Fc1cc(F)c2ncc3c(-c4ccccc4)nn(-c4cccc(Cl)c4)c3c2c1	inconclusive: 9.2 µM [falling, partial curve, poor fit]
COc1cc(NC(=O)N(Cc2ccco2)C2CCN(C(C)=O)CC2)cc(OC)c1OC	inconclusive: 29.1 µM [activator, single point]
COC(=O)c1sc(NC(=O)COc2cccc3ccccc23)nc1C	inconclusive: 32.6 µM [falling, single point]
COc1ccc(CNC(=O)c2sc3nc4c(c(C(F)(F)F)c3c2N)CCC4)cc1OC	active: 23.1 µM
COc1ccc2cc(C(=O)C3CCCN(C(=O)CCc4cnn(C)c4)C3)ccc2c1 (stereo not drawn)	inconclusive: 0.82 µM [activator, full curve]
Cc1cc(Cl)ccc1OC(C)C(=O)NCCc1ccc2c(c1)OCCO2 (stereo not drawn)	inconclusive: 29.1 µM [falling, single point]
COc1ccc(NC(=O)Nc2ccc3oc(C)nc3c2)cc1	inconclusive: 5.8 µM [activator, full curve]
CN1CCN(CCC(=O)Nc2cccc(F)c2)CC1	inconclusive: 13 µM [activator, partial curve, poor fit]
O=C(CNC(=O)c1ccncc1)N/N=C/c1cc(Br)ccc1O	inactive
O=C(Cc1ccc(Cl)cc1)Nc1cccc2ncccc12	inconclusive: 32.6 µM [falling, partial curve, poor fit]
Cc1cc(C)c2nc(N3CCN(C(=O)c4ccco4)CC3)sc2c1	inconclusive: 1.46 µM [activator, partial curve, poor fit]
CCCCCC1=CCC/C1=N\NC(=O)c1ccc2c(c1)OCO2	inconclusive: 4.11 µM [activator, partial curve, poor fit]
Cc1ccc(Cn2ccn(CC(=O)Nc3c(C)cc(C)cc3C)c(=O)c2=O)cc1	inactive
Cc1cccc(-n2c(=O)[nH]c3c(C(N)=O)nc(CC(C)C)nc32)c1	inactive
O=c1[nH]c(=O)n([C@H]2C[C@H](O)[C@@H](CO)O2)cc1C(F)(F)F	inconclusive: 10.3 µM [falling, partial curve]
Fc1cccc(-c2cc3nc4c(c(N5CCOCC5)n3n2)CCCC4)c1	inconclusive: 11.6 µM [falling, partial curve, poor fit]
CCc1ccc(OCC(=O)N/N=C/c2cc([N+](=O)[O-])ccc2N2CCCCCC2)cc1	inconclusive: 18.4 µM [falling, partial curve, poor fit]
CCCOC(=O)CSC1=C(C#N)C(c2ccc3c(c2)OCO3)CC(=O)N1 (stereo not drawn)	inconclusive: 29.1 µM [falling, single point]
CN1C(=S)SC(N(O)C(=O)Nc2ccc(Cl)c(Cl)c2)C1(C)C (stereo not drawn)	inactive
Cc1noc(C)c1C(=O)Nc1ccc(S(=O)(=O)N2CCC(C)CC2)cc1	inconclusive: 18.4 µM [falling, single point]

Reprinted at random: 3 records from the list.
Compound	Potency
Cc1ccc(Cn2ccn(CC(=O)Nc3c(C)cc(C)cc3C)c(=O)c2=O)cc1	inactive
Cc1cccc(-n2c(=O)[nH]c3c(C(N)=O)nc(CC(C)C)nc32)c1	inactive
O=C(Cc1ccc(Cl)cc1)Nc1cccc2ncccc12	inconclusive: 32.6 µM [falling, partial curve, poor fit]
